These results are taken from publication doi:10.1101/2023.04.25.538167.

These are yes or no findings as the source states them, for the method shown. Binding seen in cells or lysates may run through a third protein. Some results given as binding are weak or reduced against the parent protein; the word gives no strength. For some assays here: Where a sequence is shown, tags or fusion partners need not be part of it.

One assay concerns the target T1, CβF-PATZ1 (mouse) (UniProt Q5NBY9).
T1 sequence: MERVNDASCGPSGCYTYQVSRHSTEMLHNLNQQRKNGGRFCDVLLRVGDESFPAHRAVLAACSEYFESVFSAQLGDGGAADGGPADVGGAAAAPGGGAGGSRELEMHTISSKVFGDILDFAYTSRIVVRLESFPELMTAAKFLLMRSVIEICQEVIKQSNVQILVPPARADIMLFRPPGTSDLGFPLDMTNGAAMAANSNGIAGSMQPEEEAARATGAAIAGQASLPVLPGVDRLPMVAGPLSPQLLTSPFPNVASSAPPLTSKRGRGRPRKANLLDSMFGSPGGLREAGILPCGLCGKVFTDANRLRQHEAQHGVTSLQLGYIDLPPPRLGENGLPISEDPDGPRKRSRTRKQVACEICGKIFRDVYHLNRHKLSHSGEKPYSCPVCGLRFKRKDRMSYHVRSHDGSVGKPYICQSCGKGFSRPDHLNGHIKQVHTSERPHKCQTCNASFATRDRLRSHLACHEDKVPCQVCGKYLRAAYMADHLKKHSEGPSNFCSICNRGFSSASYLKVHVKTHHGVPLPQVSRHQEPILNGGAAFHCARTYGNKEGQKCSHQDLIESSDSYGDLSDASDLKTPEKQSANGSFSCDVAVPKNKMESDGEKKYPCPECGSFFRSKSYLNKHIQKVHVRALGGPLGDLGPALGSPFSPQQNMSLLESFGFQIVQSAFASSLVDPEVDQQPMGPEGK
The assay can be described thus: co-IP.

In assay [1] the target is T2, 3xFLAG-HA tagged PATZ1 (mouse) (UniProt Q5NBY9).
T2 sequence: T1 sequence
The assay can be described thus: co-IP.

B1: RAD21 (protein, UniProt O60216 1-631)
chain: MFYAHFVLSKRGPLAKIWLAAHWDKKLTKAHVFECNLESSVESIISPKVKMALRTSGHLLLGVVRIYHRKAKYLLADCNEAFIKIKMAFRPGVVDLPEENREAAYNAITLPEEFHDFDQPLPDLDDIDVAQQFSLNQSRVEEITMREEVGNISILQENDFGDFGMDDREIMREGSAFEDDDMLVSTTTSNLLLESEQSTSNLNEKINHLEYEDQYKDDNFGEGNDGGILDDKLISNNDGGIFDDPPALSEAGVMLPEQPAHDDMDEDDNVSMGGPDSPDSVDPVEPMPTMTDQTTLVPNEEEAFALEPIDITVKETKAKRKRKLIVDSVKELDSKTIRAQLSDYSDIVTTLDLAPPTKKLMMWKETGGVEKLFSLPAQPLWNNRLLKLFTRCLTPLVPEDLRKRRKGGEADNLDEFLKEFENPEVPREDQQQQHQQRDVIDEPIIEEPSRLQESVMEASRTNIDESAMPPPPPQGVKRKAGQIDPEPVMPPQQVEQMEIPPVELPPEEPPNICQLIPELELLPEKEKEKEKEKEDDEEEEDEDASGGDQDQEERRWNKRTQQMLHGLQRALAKTGAESISLLELCRNTNRKQAAAKFYSFLVLKKQQAIELTQEEPYSDIIATPGPRFHII
For the molecule B1, in the assay with CβF-PATZ1 (mouse), the binding entry is given as “binds”.

B2: RAD21 (protein, UniProt Q61550 1-635)
chain: MFYAHFVLSKRGPLAKIWLAAHWDKKLTKAHVFECNLESSVESIISPKVKMALRTSGHLLLGVVRIYHRKAKYLLADCNEAFIKIKMAFRPGVVDLPEENREAAYNAITLPEEFHDFDQPLPDLDDIDVAQQFSLNQSRVEEITMREEVGNISILQENDFGDFGMDDREIMREGSAFEDDDMLVSTSASNLLLEPEQSTSNLNEKMNHLEYEDQYKDDNFGEGNDGGILDDKLISNNDGGIFDDPPALSEAGVMLPEQPAHDDMDEDDNGSLGGPDSPDSVDPVEPMPTMTDQTTLVPNEEEAFALEPIDITVKETKAKRKRKLIVDSVKELDSKTIRAQLSDYSDIVTTLDLAPPTKKLMMWKETGGVEKLFFLPAQPLWNNRLLKLFTRCLTPLVPEDLRKRRKGGEADNLDEFLKEFENPEVPREEQQPQQQQPQPQRDVIDEPIIEEPSRLQDSVMEASRTTIEESAMPPPPPQGVKRKAGQIDPEPSIPPQQVEQMEIPPVELPPEEPPNICQLIPELELLPEKEKEKEKEKEEEEEEEDEDASGGDQDQEERRWNKRTQQMLHGLQRALAKTGAESISLLELCRNTNRKQAAAKFYSFLVLKKQQAIELTQEEPYSDIIATPGPRFHII
As for B2, the binding entry in assay [1] is on record as “binds”.
